Some entries share one result that the patent states for a list of compounds.
assay: Brain levels (kp and kpu,u) after oral administration; type: in vivo, CDI mice; conditions: as illustrated in Table D; mice, 20 mpk PO
Procedure: The in vivo total brain to plasma ratio was assessed in CDI mice after oral administration of the compound. Blood was collected at several timepoints up to 24 h, and transferred into plastic micro centrifuge tubes with EDTA-K2 as anticoagulant. Blood samples were centrifuged at 4000 g for 5 minutes at 4° C. to obtain plasma, then immediately frozen and stored at −75±15° C. prior to analysis. Animals were terminally anaesthetized with a rising concentration of CO2 gas at about 1 minute. At selected timepoints, whole brains were removed from the skull, rinsed in cold PBS to remove blood, dried with clean gauze, then frozen in liquid nitrogen and kept at −75±15° C. before analysis. At the time of analysis, brain samples were homogenized with PBS by tissue weight (g) to PBS volume (mL) ratio 1:3. Plasma and brain drug levels were quantified by LC/MS/MS on a AB Sciex Triple Quad 5500+ instrument, after separation on a HALO 160A ES-C18, 2.7 μm 2.1-50 mm column. Quantitation was performed using a calibration curve prepared in blank plasma or blank brain homogenate. The software WinNonlin (Phoenix™) was used for pharmacokinetic analysis from the concentrations versus time data, including the AUCinf and AUClast. The Kp ratio (total brain concentration over total plasma concentration) was calculated as (AUCtot,br)/(AUCtot,pl).
The unbound brain exposure was assessed as Kpuu, which is the free brain/free plasma concentration ratio (Cu,br/Cu,pl). The Cu,br/Cu,pl ratios were obtained from in vivo total brain to plasma ratios (Ctot,br/Ctot,pl) by using in vitro determined Fu,br and Fu,pl.
Plasma protein binding and brain homogenate protein binding were measured by equilibrium dialysis in a HTDialysis plate. The dialysis membranes were soaked in ultrapure water for 60 minutes to separate strips, then in 20% ethanol for 20 minutes, finally in dialysis buffer for 20 minutes. The dialysis set up was assembled according to the manufacturer's instruction. Each cell received 150 μL of plasma or brain homogenate spiked with 1 mM of compound, and dialyzed against an equal volume of dialysis buffer (PBS). The dialysis plate was sealed and incubated in an incubator at 37° C. with 5% CO2 at 100 rpm for 6 hours. At the end of incubation, compound concentration was measured in both chambers by LC-MS/MS on a Triple Quad™ 5500 from AB Inc after separation on a XSelect Hss T3 2.5μ (2.1×30 mm) column. Free fraction (Fu) was calculated as (Peak Area Ratio buffer chamber/Peak Area Ratio plasma chamber).
Kpuu was calculated as (AUCtot,br×Fu,br)/(AUCtot,pl×Fu,pl).
The below table also assigns each compound a code for kp and kpu,u values: A or B. According to the code. A represents a value of >0.3 and B represents a value of ≤0.3. […] The kpu,u was then calculated upon correcting this kp value with mouse plasma protein binding and mouse brain homogenates binding. A Kpu,u value >0.3 is brain penetrant, and Kpu,u value less than or equal to 0.3 is not brain penetrant. N.D.=not determined. The corresponding raw kp and kpu,u data is also included.

SMILES | brain levels (code)
[2H]C([2H])([2H])OC(C)(C)CNc1nnc(-c2ccc(C(F)F)cc2O)c2ccncc12 [Compound 2, 5-(difluoromethyl)-2-(4-((2-(methoxy-d3)-2-methylpropyl)amino)pyrido[3,4-d]pyridazin-1-yl)phenol] | A (A represents a value of >0.3)
OCC1(CNc2nnc(-c3ccc(Cl)cc3O)c3ccncc23)CC1 [Compound 8, 5-chloro-2-(4-(((1-(hydroxymethyl)cyclopropyl)methyl)amino)pyrido[3,4-d]pyridazin-1-yl)phenol, reference compound] | B (B represents a value of ≤0.3)
Oc1cc(Cl)ccc1-c1nnc(N[C@H]2CCOC2)c2cnccc12 (single isomer, unassigned) [Compound 7*, reference compound] | B (B represents a value of ≤0.3)
CC1(C)COCC[C@@H]1Nc1nnc(-c2ccc(Cl)cc2O)c2ccncc12 (single isomer, unassigned) [Compound 3*] | A (A represents a value of >0.3)
Cc1ccc(-c2nnc(N[C@H]3COC(C)(C)C3)c3cnccc23)c(O)c1 [Compound 5, (R)-2-(4-((5,5-dimethyltetrahydrofuran-3-yl)amino)pyrido[3,4-d]pyridazin-1-yl)-5-methylphenol] | A (A represents a value of >0.3)
CC1(C)COC[C@@H]1Nc1nnc(-c2ccc(Cl)cc2O)c2ccncc12 (single isomer, unassigned) [Compound 1*] | A (A represents a value of >0.3)
CN1CCO[C@@H](CNc2nnc(-c3ccc(C(F)(F)F)cc3O)c3ccncc23)C1 (single isomer, unassigned) [Compound 6*] | A (A represents a value of >0.3)
CC1(C)C[C@@H](Nc2nnc(-c3ccc(Cl)cc3O)c3ccncc23)CCO1 (single isomer, unassigned) [Compound 4*] | A (A represents a value of >0.3)

Source: US12331048B2, “Pyrido-[3,4-d]pyridazine amine derivatives useful as NLRP3 inhibitors” (Ventus Therapeutics U.S., Inc., priority 2022, dated 2025)
